Data taken from article PMC8111302.
These are yes or no findings as the source states them, for the method shown. In cells and extracts the contact can be indirect. Some entries that bind do so weakly or less than the wild type.

Sequences of proteins named here, by UniProt entry; tags and fusion partners are left off.
UniProt Q00987: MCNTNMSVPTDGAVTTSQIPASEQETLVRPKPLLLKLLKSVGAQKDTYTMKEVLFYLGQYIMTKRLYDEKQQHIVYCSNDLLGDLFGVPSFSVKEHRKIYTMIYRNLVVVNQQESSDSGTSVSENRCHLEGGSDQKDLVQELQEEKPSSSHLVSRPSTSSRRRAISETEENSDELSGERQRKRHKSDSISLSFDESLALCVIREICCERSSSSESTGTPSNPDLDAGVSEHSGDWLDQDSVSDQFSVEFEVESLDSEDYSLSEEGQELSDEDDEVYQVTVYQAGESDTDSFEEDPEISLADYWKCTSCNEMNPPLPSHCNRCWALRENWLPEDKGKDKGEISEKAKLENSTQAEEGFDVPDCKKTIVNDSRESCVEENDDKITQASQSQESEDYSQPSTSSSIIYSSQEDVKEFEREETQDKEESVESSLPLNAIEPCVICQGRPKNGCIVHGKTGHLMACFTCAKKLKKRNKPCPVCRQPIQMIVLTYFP
UniProt Q9UNE7: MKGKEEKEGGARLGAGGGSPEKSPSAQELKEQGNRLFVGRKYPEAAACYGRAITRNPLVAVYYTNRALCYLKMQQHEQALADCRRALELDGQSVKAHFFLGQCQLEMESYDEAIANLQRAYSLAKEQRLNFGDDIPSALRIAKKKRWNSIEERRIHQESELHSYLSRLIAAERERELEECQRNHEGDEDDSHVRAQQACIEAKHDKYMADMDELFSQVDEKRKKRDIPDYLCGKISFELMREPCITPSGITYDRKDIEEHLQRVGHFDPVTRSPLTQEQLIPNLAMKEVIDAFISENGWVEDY
UniProt P03372: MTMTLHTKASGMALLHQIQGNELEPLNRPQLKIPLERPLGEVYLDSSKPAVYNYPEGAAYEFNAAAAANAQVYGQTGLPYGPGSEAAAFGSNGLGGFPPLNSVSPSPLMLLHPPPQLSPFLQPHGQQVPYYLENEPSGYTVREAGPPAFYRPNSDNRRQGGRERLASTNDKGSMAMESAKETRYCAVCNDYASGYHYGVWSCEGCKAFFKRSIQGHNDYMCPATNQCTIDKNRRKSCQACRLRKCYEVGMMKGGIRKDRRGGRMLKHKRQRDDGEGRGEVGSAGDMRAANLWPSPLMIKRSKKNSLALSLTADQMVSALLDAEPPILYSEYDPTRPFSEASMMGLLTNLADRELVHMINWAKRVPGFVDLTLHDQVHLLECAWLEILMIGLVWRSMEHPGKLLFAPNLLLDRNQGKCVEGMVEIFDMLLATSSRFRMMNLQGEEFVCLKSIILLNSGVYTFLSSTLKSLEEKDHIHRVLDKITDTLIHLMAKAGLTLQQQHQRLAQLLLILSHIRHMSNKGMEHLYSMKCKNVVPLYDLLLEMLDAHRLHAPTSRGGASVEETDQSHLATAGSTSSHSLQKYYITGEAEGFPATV
UniProt Q92731: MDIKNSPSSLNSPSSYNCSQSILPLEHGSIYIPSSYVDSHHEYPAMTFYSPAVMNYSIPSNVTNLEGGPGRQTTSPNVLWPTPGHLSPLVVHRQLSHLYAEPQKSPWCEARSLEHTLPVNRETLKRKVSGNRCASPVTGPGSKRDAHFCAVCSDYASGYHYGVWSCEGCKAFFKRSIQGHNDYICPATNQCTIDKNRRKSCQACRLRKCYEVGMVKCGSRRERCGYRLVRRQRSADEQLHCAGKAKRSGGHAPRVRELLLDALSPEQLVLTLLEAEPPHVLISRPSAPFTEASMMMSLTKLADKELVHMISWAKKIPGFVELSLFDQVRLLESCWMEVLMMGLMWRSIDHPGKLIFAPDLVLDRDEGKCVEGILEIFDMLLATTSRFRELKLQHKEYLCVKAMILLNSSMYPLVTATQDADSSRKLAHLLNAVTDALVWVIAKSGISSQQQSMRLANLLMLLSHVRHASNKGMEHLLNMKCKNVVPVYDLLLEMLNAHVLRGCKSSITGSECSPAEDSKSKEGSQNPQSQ

How the values were obtained:
[1] = molecular target: HA-MDM2 (mouse double minute 2) (UniProt Q00987); assay: co-IP; MDM2 and ERα overexpressed in HESCs-En cells; precipitating antibody not stated
[2] = molecular target: HA-CHIP (hsc70-interacting protein) (UniProt Q9UNE7); assay: co-IP; HESCs-En cells transfected with HA-CHIP and FLAG-ERα or FLAG-ERβ; lysate precipitated with HA antibody and Protein A + G beads

| Substance | binding [1] | binding [2] |
| --- | --- | --- |
| FLAG-ERα (estrogen receptor α) (from UniProt P03372 1-595) | binds | binds |
| FLAG-ERβ (estrogen receptor β) (from UniProt Q92731 1-530) |  | binds |
